Laboratory results from US20020199211A1.
Results are given in words; binding and its absence hold for the method and conditions named. In cells and extracts the contact can be indirect. Some binding calls cover weakened binding; strength is not graded here.

Sequences of proteins named here, by UniProt entry; tags and fusion partners are left off. A change or cut given only in a name is not applied to a line headed by its entry. Residues count along the entry.
UniProt P42768: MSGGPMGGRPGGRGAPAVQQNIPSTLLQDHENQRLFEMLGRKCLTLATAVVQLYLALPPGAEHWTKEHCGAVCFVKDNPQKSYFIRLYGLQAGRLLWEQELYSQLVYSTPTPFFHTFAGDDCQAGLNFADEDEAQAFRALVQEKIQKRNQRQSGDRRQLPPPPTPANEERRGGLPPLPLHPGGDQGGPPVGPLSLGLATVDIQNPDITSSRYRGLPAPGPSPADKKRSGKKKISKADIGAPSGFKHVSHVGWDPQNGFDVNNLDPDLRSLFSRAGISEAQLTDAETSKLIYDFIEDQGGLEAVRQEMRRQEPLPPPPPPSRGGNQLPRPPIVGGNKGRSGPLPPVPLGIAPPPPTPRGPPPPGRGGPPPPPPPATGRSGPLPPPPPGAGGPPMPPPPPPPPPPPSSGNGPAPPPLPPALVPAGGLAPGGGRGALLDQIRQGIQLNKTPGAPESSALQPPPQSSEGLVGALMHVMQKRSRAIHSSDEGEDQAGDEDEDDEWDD
GST-WASP1-270: residues 1-270 of P42768
endogenous WASP from the human B cell line BJAB: residues 2-502 of P42768
UniProt O43516: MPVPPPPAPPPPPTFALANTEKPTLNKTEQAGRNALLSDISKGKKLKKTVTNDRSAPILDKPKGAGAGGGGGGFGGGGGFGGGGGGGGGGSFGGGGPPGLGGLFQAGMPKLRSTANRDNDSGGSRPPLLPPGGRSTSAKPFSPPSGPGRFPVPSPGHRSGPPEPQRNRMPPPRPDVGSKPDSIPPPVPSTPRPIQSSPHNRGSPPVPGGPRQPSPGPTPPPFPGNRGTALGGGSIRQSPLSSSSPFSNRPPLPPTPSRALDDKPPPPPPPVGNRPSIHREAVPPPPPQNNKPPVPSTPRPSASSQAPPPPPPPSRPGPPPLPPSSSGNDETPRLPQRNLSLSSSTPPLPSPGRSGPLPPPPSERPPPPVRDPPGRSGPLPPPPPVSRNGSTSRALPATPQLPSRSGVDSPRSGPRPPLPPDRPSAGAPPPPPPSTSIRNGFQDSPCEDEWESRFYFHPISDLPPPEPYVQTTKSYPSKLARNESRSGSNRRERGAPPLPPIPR

How the values were obtained:
GST-WASP1-270 = GST-WASP1-270 (UniProt P42768); test: in vitro pull-down of mixed bacterial lysates on GSH beads, anti-MBP Western blot
[1] = target: endogenous WASP from the human B cell line BJAB (human) (UniProt P42768); test: co-immunoprecipitation with anti-FLAG from BJAB clone 3, anti-WASP Western blot
[2] = target: endogenous WASP from the human B cell line BJAB (human) (UniProt P42768); test: co-immunoprecipitation with anti-FLAG M2 from transfected BJAB cells, anti-WASP Western blot

| binding (GST-WASP1-270) | binding [1] | binding [2] | Substance |
| --- | --- | --- | --- |
| binds | – | – | MBP-WIP4 (from UniProt O43516 321-503) |
| – | binds | binds | FLAG-tagged full length WIP (from UniProt O43516 1-503) |
